The source of these data is PubChem BioAssay AID2685 (National Center for Advancing Translational Sciences (NCATS), 2010).

Some of the results follow. The main result of the screen is listed elsewhere. These columns were measured beside it and carry no call. Most of these compounds were active or inconclusive in the main read-out, so they are no random draw. The note in brackets gives the kind of curve behind each potency; many fits are weak.

This assay is described as follows: qHTS Assay for Lipid Storage Modulators in Drosophila S3 Cells.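 As to cell number change: cells counted by Cell Tracker Red CMTPX staining in the red channel.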 The conditions noted are these: BODIPY lipid droplet fluorescence, 18-24 h; for cell number change: measured here: cell count max response, cells fed with added oleic acid. In a few lines: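 Drosophila S3 cells got compounds at several concentrations plus oleic acid (400 uM solution). Laser-scanning cytometry with 488 nm excitation read lipid droplets at 500-530 nm and cells at 575-640 nm. Percent activity was relative to 20 uM Triacsin C.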
(qHTS replaces the single test concentration by a dilution series.)

The mark [1] stands for this setting: measured here: lipid fluorescence (Fed channel) AC50, cells fed with added oleic acid.
Where [2] appears, read: measured here: cell number channel AC50, cells fed with added oleic acid.

In general, AC50 refers to the concentration at which the activity in the assay is half-maximal. Higher therefore signals weaker potency.

For the compound `O=C(C1CCN(CC2CC=CCC2)CC1)N(CCc1ccccc1)Cc1ccccc1` (stereo not given), the cell number change was -6.96%. In addition, the AC50 under setting [1] is 29.1 µM [rising, single point].
`CC(C)CC(CCc1ccccc1)OS(N)(=O)=O` (stereo not given): the cell number change was -7.12%. Besides, the AC50 under setting [1] was 13 µM [rising, partial curve, poor fit].
On to `O=C(NCc1ccncc1)c1cncc(Br)c1`, for which the cell number change is 156%.
`CCOC(=O)c1c(CSC(=N)N)n(-c2ccc(C)cc2)c2cc(Br)c(OC(C)=O)cc12`: the cell number change was -22.7%. Also, the AC50 under setting [1] was 29.1 µM [falling, single point].
Turning to `O=C(/C=C/c1ccc(Cl)cc1)NC(=S)Nc1ccccc1C(=O)O`, the cell number change came out at 23.2%. Further, under setting [1], the AC50 is 4.11 µM [rising, single point].
In the case of `CN1CCc2nc(SCC(=O)Nc3ccc(OC(F)(F)F)cc3)c(C#N)c(-c3cccs3)c2C1`, the cell number change is 0.241%.
As to `Nc1ccc(Nc2ccccc2)c(S(=O)(=O)O)c1`, the cell number change came out at 6.86%. Further, the AC50 under setting [1] is 0.184 µM [rising, full curve, poor fit].
As for `CCCSC1C(C)=C(C)C(=O)N1Cc1ccccc1` (stereo not given), the cell number change was -5.22%. Further, under setting [1], the AC50 was 29.1 µM [falling, single point].
With `O=C(Nc1ccc2ccccc2c1)/C(=C\c1ccc2c(c1)OCO2)NC(=O)c1ccco1`, the cell number change stood at 38.6%. Moreover, under setting [2], the AC50 was 29.1 µM [rising, single point]. In addition, the AC50 under setting [1] is 29.1 µM [rising, single point].
As for `CC(C)CC(OC(=O)c1nsc(Cl)c1Cl)C(=O)NCC1CCCO1` (stereo not given), the cell number change was 3.75%.
With `CCc1c(C#N)c(N)nc(SCC(=O)OCc2ccccc2)c1C#N`, the cell number change was determined as 8.99%. For the same compound, under setting [1], the AC50 is 0.82 µM [rising, full curve].
On to `Cc1ccc(C2=NN(C)c3nc4ccccc4n3C2)cc1`, for which the AC50 is, setting by setting: under setting [2], 2.31 µM [rising, partial curve]; under setting [1], 1.46 µM [rising, partial curve].
For the compound `CCC(=O)N1CCN(c2ccccc2NC(=O)Cc2ccc(Cl)cc2)CC1`, the cell number change is -6.78%. Under setting [1], the AC50 is 1.64 µM [rising, partial curve, poor fit].
Consider `NC(=O)NC(=O)COC(=O)CCSc1ccccc1`, for which the cell number change is -33.5%. Moreover, the AC50 under setting [2] was 0.0291 µM [falling, full curve]. Also, under setting [1], the AC50 was 0.0259 µM [falling, full curve].
For the compound `CCOC(=O)c1cnc2c(C)cccc2c1Nc1cccc(C(=O)O)c1`, the cell number change was 8.43%. Also, under setting [2], the AC50 is 1.64 µM [rising, partial curve, poor fit]. Besides, under setting [1], the AC50 was 0.58 µM [rising, single point].
On to `Cc1cc(C)nc(SCc2nc(N)nc(-c3ccccc3O)n2)n1`, for which the cell number change is 0.676%. The AC50 under setting [1] was 0.731 µM [rising, single point].
With `CCOC(=O)N1CCN(S(=O)(=O)c2ccc(OC)cc2)CC1`, the cell number change stood at 11.4%. The AC50 under setting [1] is 2.06 µM [falling, partial curve, poor fit].
Turning to `Cc1cccn2c(=O)c(/C=C3\SC(=S)NC3=O)c(NCCCN3CCOCC3)nc12`, the cell number change amounted to 1.43%. Also, under setting [1], the AC50 is 25.9 µM [falling, single point].
Regarding `Cc1oc(-c2ccc(Cl)cc2)nc1CN1CCCC(C(=O)NCCCN2CCCC2=O)C1` (stereo not given), the AC50 under setting [1] was 6.51 µM [falling, partial curve].
On the same count and under the same terms, to `COc1cccc(/C=C/C(=O)OCC(=O)c2c[nH]c3ccccc23)c1` belongs 0.103 µM [falling, full curve, poor fit].
On to `COc1ccc(OC)c(NC(=O)C2CCCN(S(=O)(=O)c3c(C)noc3C)C2)c1` (stereo not given), for which the cell number change came out at 19.9%.
As for `Cc1cc(C)nc(S/C=C/C(=O)c2ccccc2)n1`, the cell number change is -60.4%. Also, the AC50 under setting [2] is 16.4 µM [falling, partial curve]. Also, the AC50 under setting [1] was 14.6 µM [falling, partial curve].
In the case of `CN(Cc1ccc(F)cc1)C(=O)c1cccc(S(=O)(=O)NCc2ccccc2)c1`, the cell number change was determined as 60.6%. Further, the AC50 under setting [2] was 7.31 µM [rising, partial curve].
As for `O=C(NN=C1CCCCCC1)c1ccc(Cl)s1`, the cell number change is -19.3%. Besides, the AC50 under setting [1] is 0.58 µM [rising, single point].
Turning to `O=C(NCCN1C(=O)C2C3C=CC(C3)C2C1=O)NCc1ccccc1` (stereo not given), the cell number change was -16.2%. Besides, the AC50 under setting [2] was 0.206 µM [falling, full curve, poor fit]. Further, the AC50 under setting [1] was 29.1 µM [rising, single point].
On to `COC(=O)C(C)(C(=O)OC)c1ccc(C(F)(F)F)cc1[N+](=O)[O-]`, for which the cell number change came to 5.54%. Moreover, the AC50 under setting [2] was 0.291 µM [rising, partial curve]. The AC50 under setting [1] was 2.31 µM [rising, partial curve].
With `Cc1ccc2c(N)c(C#N)sc2n1`, the cell number change was 3.51%.
Consider `Cc1ccsc1C(C(=O)NC(C)(C)C)N(C(=O)c1csnn1)c1ccccc1` (stereo not given), for which the AC50 under setting [1] is 29.1 µM [falling, single point].
Regarding `N/C(Cc1cccc2ccccc12)=N\OC(=O)COc1ccccc1`, the cell number change was determined as 0.407%.
Turning to `CN(Cc1cccs1)c1nc(-c2cccnc2)nc2ccccc12`, the cell number change was determined as 83.3%. Further, the AC50 under setting [2] is 1.3 µM [rising, full curve]. For the same compound, the AC50 under setting [1] is 1.84 µM [rising, partial curve].
In the case of `Cc1cc(=O)n2nc(N3CCCC(C(=O)NCc4ccco4)C3)sc2n1` (stereo not given), the cell number change is 8.86%.
On to `CC(=O)c1cccc(Nc2cc(C)nc3c(C)cc(C)cc23)c1`, for which the cell number change was 3.77%. Further, the AC50 under setting [1] is 4.61 µM [falling, partial curve].
As to `CC(C)c1cccc(C(C)C)c1NC(=O)CN1C(=O)NC2(CCCCCCC2)C1=O`, the cell number change came to 25%. Besides, under setting [1], the AC50 was 16.4 µM [rising, single point].
As for `COc1ccc(N(CC(=O)NCCSc2ccccc2)S(=O)(=O)c2ccccc2)cc1OC`, the cell number change came out at 2.09%.
As to `O=C(NCc1cccs1)c1ccncc1`, the AC50 under setting [1] was 0.116 µM [falling, full curve, poor fit].
Regarding `COC(=O)c1ccc(-n2nnnc2SCC(=O)Nc2ccccc2F)cc1`, the cell number change was -15.1%. Besides, the AC50 under setting [1] is 13 µM [falling, partial curve, poor fit].
In the case of `O=C(CSc1ccc(-c2nc3ccccc3[nH]2)cn1)N1CCN(C(=O)c2ccco2)CC1`, the cell number change is -13.4%. In addition, under setting [1], the AC50 was 20.6 µM [falling, single point].
Regarding `O=C(CSc1nnc(COc2ccccc2)o1)N1CCOCC1`, the cell number change was determined as 44.2%. Also, under setting [2], the AC50 was 0.731 µM [rising, full curve].
Regarding `COC(=O)C1NN=C(C(=O)c2ccc(Br)cc2)C1c1cccc(Br)c1` (stereo not given), the cell number change was found to be 24.4%. The AC50 under setting [1] is 16.4 µM [rising, partial curve].
For the compound `O=C(NCc1ccccc1)C1=C[C@H](c2csc3ccccc23)C[C@H](OCCCCO)O1`, the cell number change was 3.81%. The AC50 under setting [1] is 6.51 µM [rising, single point].
